Source: patent US20250304693A1
No constants are given. Whether binding was seen depends on the method and setting. Some results given as binding are weak or reduced against the parent protein; the word gives no strength.

Protein sequences, listed by entry. Tags and fused reporters are not part of them. Residues count along the entry.
UniProt Q7Z6A9, residues 31-157: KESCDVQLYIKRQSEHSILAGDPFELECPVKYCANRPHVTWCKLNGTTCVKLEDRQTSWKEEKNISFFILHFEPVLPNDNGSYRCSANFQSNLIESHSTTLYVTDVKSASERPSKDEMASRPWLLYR

Experiments:
[1] = molecular target: recombinant human BTLA (human) (UniProt Q7Z6A9); test: ELISA on recombinant human BTLA
[2] = molecular target: recombinant human BTLA (human) (UniProt Q7Z6A9); test: ELISA (Ab binding to hBTLA-his), x axis log [hBTLA-his] nM, OD450
[3] = molecular target: cynomolgus BTLA on cells (cynomolgus); test: FACS, Expi293.cynoBTLA cells, AF647 anti-human IgG Fc secondary antibody, x axis log[Ab] nM
[4] = molecular target: cynomolgus BTLA on cells (cynomolgus); test: FACS on Expi293 cells overexpressing cynomolgus BTLA
[5] = molecular target: cynomolgus BTLA on cells (cynomolgus); test: FACS on Expi293 cynomolgus BTLA expressing cells (FIG. 11B)

Row | Binder | binding [1] | binding [2] | binding [3] | binding [4] | binding [5]
1 | HFB6-2hz8-hG4P (antibody, V domains shown) VH: QVQLVQSGAEVKKPGASVKVSCKASGVNIKDTYMYWVRQAPGQGLEWIGRIDPANGYTRYAQKFQGRVTMTADTSTSTVYMELSSLRSEDTAVYYCAVNDGYFEYFDVWGQGTTVTVSS VL: EIVLTQSPGTLSLSPGERATLSCRSSQSLLDSDGKPYLNWLQQKPGQAPRRLIYLVSKLDSGIPDRFSGSGSGTDFTLTISRLEPEDLAVYYCWQDTHFPRTFGQGTKLEIK | binds | binds | – | – | –
2 | HFB6-2hz16-hG4P (antibody, V domains shown) VH: QVQLVQSGAEVKKPGASVKVSCKASGVNIKDTYMYWVRQAPGQGLEWIGRIDPANGYTRYAQKFQGRATVTADTSTSTVYLELSSLRSEDTAVYYCAVNDGYFEYFDVWGQGTTVTVSS VL: DIVMTQSPDSLAVSLGERATINCKSSQSLLDSDGKPYLNWLQQKPGQSPKRLIYLVSKLDSGVPDRFSGSGSGTDFTLTISSVQAEDVAVYYCWQDTHFPRTFGQGTKLEIK | binds | binds | – | – | –
3 | HFB6-2hz11-hG4P (antibody, V domains shown) VH: QVQLVQSGAEVKKPGSSVKVSCKASGVNIKDTYMYWVRQAPGQGLEWIGRIDPANGYARYAQKFQGRATVTADKSTSTAYLELSSLRSEDTAVYYCAVNDGYFEYFDVWGQGTTVTVSS VL: EIVLTQSPGTLSLSPGERATLSCRSSQSLLDSDGKPYLNWLQQKPGQAPRRLIYLVSKLDSGIPDRFSGSGSGTDFTLTISRLEPEDLAVYYCWQDTHFPRTFGQGTKLEIK | binds | binds | – | – | –
4 | HFB6-2hz15-hG4P (antibody, V domains shown) VH: QVQLVQSGAEVKKPGASVKVSCKASGVNIKDTYMYWVRQAPGQGLEWIGRIDPANGYTRYAQKFQGRVTMTADTSTSTVYMELSSLRSEDTAVYYCAVNDGYFEYFDVWGQGTTVTVSS VL: DIVMTQSPDSLAVSLGERATINCKSSQSLLDSDGKPYLNWLQQKPGQSPKRLIYLVSKLDSGVPDRFSGSGSGTDFTLTISSVQAEDVAVYYCWQDTHFPRTFGQGTKLEIK | binds | binds | – | – | –
5 | HFB6-2hz12-hG4P (antibody, V domains shown) VH: EVQLLESGGGLVQPGGSLRLSCAASGVNIKDTYMYWVRQAPGKGLEWIGRIDPANGYTRYADSVKGRFTISADNSKNTLYLQMNSLRAEDTAVYYCAVNDGYFEYFDVWGQGTTVTVSS VL: EIVLTQSPGTLSLSPGERATLSCRSSQSLLDSDGKPYLNWLQQKPGQAPRRLIYLVSKLDSGIPDRFSGSGSGTDFTLTISRLEPEDLAVYYCWQDTHFPRTFGQGTKLEIK | binds | binds | – | – | –
6 | HFB6-2hz0-hG4P (antibody, V domains shown) VH: QVQLVQSGAEVKKPGSSVKVSCKASGVNIKDTYMYWVRQAPGQGLEWIGRIDPANGYARYAQKFQGRATITADESTSTAYLELSSLRSEDTAVYYCAVNDGYFEYFDVWGQGTTVTVSS VL: EIVLTQSPGTLSLSPGERATLSCRSSQSLLDSDGKPYLNWLQQKPGQAPRRLIYLVSKLDSGIPDRFSGSGSGTDFTLTISRLEPEDLAVYYCWQDTHFPRTFGQGTKLEIK | binds | binds | – | – | –
7 | HFB6-2hz9-hG4P (antibody, V domains shown) VH: QVQLVQSGAEVKKPGASVKVSCKASGVNIKDTYMYWVRQAPGQGLEWIGRIDPANGYTRYAQKFQGRATVTADTSTSTVYLELSSLRSEDTAVYYCAVNDGYFEYFDVWGQGTTVTVSS VL: EIVLTQSPGTLSLSPGERATLSCRSSQSLLDSDGKPYLNWLQQKPGQAPRRLIYLVSKLDSGIPDRFSGSGSGTDFTLTISRLEPEDLAVYYCWQDTHFPRTFGQGTKLEIK | binds | binds | – | – | –

The next lines start with the values.

Row | binding [1] | binding [2] | binding [3] | binding [4] | binding [5] | Binder
8 | binds | binds | – | – | – | HFB6-2hz18-hG4P (antibody, V domains shown) VH: QVQLVQSGAEVKKPGSSVKVSCKASGVNIKDTYMYWVRQAPGQGLEWIGRIDPANGYARYAQKFQGRATVTADKSTSTAYLELSSLRSEDTAVYYCAVNDGYFEYFDVWGQGTTVTVSS VL: DIVMTQSPDSLAVSLGERATINCKSSQSLLDSDGKPYLNWLQQKPGQSPKRLIYLVSKLDSGVPDRFSGSGSGTDFTLTISSVQAEDVAVYYCWQDTHFPRTFGQGTKLEIK
9 | binds | binds | – | – | – | HFB6-2hz17-hG4P (antibody, V domains shown) VH: QVQLVQSGAEVKKPGSSVKVSCKASGVNIKDTYMYWVRQAPGQGLEWIGRIDPANGYARYAQKFQGRATITADESTSTAYLELSSLRSEDTAVYYCAVNDGYFEYFDVWGQGTTVTVSS VL: DIVMTQSPDSLAVSLGERATINCKSSQSLLDSDGKPYLNWLQQKPGQSPKRLIYLVSKLDSGVPDRFSGSGSGTDFTLTISSVQAEDVAVYYCWQDTHFPRTFGQGTKLEIK
10 | binds | binds | – | – | – | HFB6-2hz19-hG4P (antibody, V domains shown) VH: EVQLLESGGGLVQPGGSLRLSCAASGVNIKDTYMYWVRQAPGKGLEWIGRIDPANGYTRYADSVKGRFTISADNSKNTLYLQMNSLRAEDTAVYYCAVNDGYFEYFDVWGQGTTVTVSS VL: DIVMTQSPDSLAVSLGERATINCKSSQSLLDSDGKPYLNWLQQKPGQSPKRLIYLVSKLDSGVPDRFSGSGSGTDFTLTISSVQAEDVAVYYCWQDTHFPRTFGQGTKLEIK
11 | – | – | binds | binds | binds | HFB6-3hz24-hG4P-C109A (antibody, V domains shown) VH: QVQLQESGPGLVKPSGTLSLTCADSGFNIKDTYIHWVRQPPGKGLEWIGRIDPANGFTRYNPSLKSRVTISSDKSKNQASLKLSSVTAADTAVYYCAREDGYPYYTLDAWGQGTTVTVSS VL: DIVMTQSPDSLALSLGERATINCKSSQSLLDVDGKTYLNWFQQKPGQPPKRLIYLVSKLDSGVPDRFSGSGSGTDFTLTISSVQAEDVAVYYCWQGTHFPRTFGQGTKLEIK
12 | – | – | binds | binds | binds | HFB6-3hz24-hG4P-C109S (antibody, V domains shown) VH: QVQLQESGPGLVKPSGTLSLTCADSGFNIKDTYIHWVRQPPGKGLEWIGRIDPANGFTRYNPSLKSRVTISSDKSKNQASLKLSSVTAADTAVYYCAREDGYPYYTLDSWGQGTTVTVSS VL: DIVMTQSPDSLALSLGERATINCKSSQSLLDVDGKTYLNWFQQKPGQPPKRLIYLVSKLDSGVPDRFSGSGSGTDFTLTISSVQAEDVAVYYCWQGTHFPRTFGQGTKLEIK
13 | – | – | binds | binds | binds | HFB6-3hz25-hG4P-C109S (antibody, V domains shown) VH: QVQLQESGPGLVKPSGTLSLTCADSGFSISDTYIHWVRQPPGKGLEWIGRIDPANGFTRYNPSLKSRVTISSDKSKNQASLKLSSVTAADTAVYYCAREDGYPYYTLDSWGQGTTVTVSS VL: DIVMTQSPDSLALSLGERATINCKSSQSLLDVDGKTYLNWFQQKPGQPPKRLIYLVSKLDSGVPDRFSGSGSGTDFTLTISSVQAEDVAVYYCWQGTHFPRTFGQGTKLEIK
14 | – | – | binds | binds | binds | HFB6-3hz25-hG4P-C109A (antibody, V domains shown) VH: QVQLQESGPGLVKPSGTLSLTCADSGFSISDTYIHWVRQPPGKGLEWIGRIDPANGFTRYNPSLKSRVTISSDKSKNQASLKLSSVTAADTAVYYCAREDGYPYYTLDAWGQGTTVTVSS VL: DIVMTQSPDSLALSLGERATINCKSSQSLLDVDGKTYLNWFQQKPGQPPKRLIYLVSKLDSGVPDRFSGSGSGTDFTLTISSVQAEDVAVYYCWQGTHFPRTFGQGTKLEIK
15 | binds | binds | – | – | – | HFB6-2hz20-hG4P (antibody, V domains shown) VH: QVQLQESGPGLVKPSGTLSLTCAASGVNIKDTYMYWVRQPPGKGLEWIGRIDPANGYTRYNPSFKSRATVSADKSKNQASLKLSSLTAADTAVYYCAVNDGYFEYFDVWGQGTTVTVSS VL: DIVMTQSPDSLAVSLGERATINCKSSQSLLDSDGKPYLNWLQQKPGQSPKRLIYLVSKLDSGVPDRFSGSGSGTDFTLTISSVQAEDVAVYYCWQDTHFPRTFGQGTKLEIK
16 | – | – | binds | – | binds | HFB6-3hz20-hG4P (antibody, V domains shown) VH: QVQLQESGPGLVKPSGTLSLTCADSGFNIKDTYIHWVRQPPGKGLEWIGRIDPANGFTRYNPSFKSRATISSDKSKNQASLKLSSVTAADTAVYYCAREDGYPYYTLDCWGQGTTVTVSS VL: DIVMTQSPDSLALSLGERATINCKSSQSLLDVDGKTYLNWFQQKPGQPPKRLIYLVSKLDSGVPDRFSGSGSGTDFTLTISSVQAEDVAVYYCWQGTHFPRTFGQGTKLEIK
